Results are given in words; binding and its absence hold for the method and conditions named. Some results given as binding are weak or reduced against the parent protein; the word gives no strength. Where a sequence is shown, tags or fusion partners need not be part of it.
B1: Hsp90 from S. oneidensis (Hsp90So), fused to the T25 domain of B. pertussis adenylate cyclase (protein, UniProt Q8EFF7 1-637)
chain: MSQQETHGFQTEVKQLLHLMIHSLYSNKEIFLRELVSNAADAADKLRYLALTNDALYEGDGELRVRISADKEKGTVTIEDNGVGMTRDGVIEHLGTIAKSGTAEFFKNLSGEASKDSQLIGQFGVGFYSAFIVAKKVTVRTRAAGHKANEAVLWESEGEGSFTVETITKATRGTEITLHLRDDEKEFADDWRLRSIITKYSDHISIPVEMWQEGTPERDGPDGEKIPATEGYWKAMNKATALWMRNKSEITDEEYQEFYKHISHDYTDALLWSHNRVEGKQEYTNLLYIPSKAPWDLWNRDRKHGLKLFVQRVFIMDDAEQFMPSYLRFVQGLIDSNDLPLNVSREILQDNHITKAMRTGITKRVLGMLEKLAKDDAEKYQQFWAEFGQVLKEGPAEDFANRERIAGLLRFASTHTGSAAPTVSLDDYISRMKEGQTKIYYIVADSHEAAANSPHLELLRKKGIEVLLMSERIDEWLINHLTEYKEKQLHSVTRGELELGELEDAAEKEAQEKLAEESAPLIERIKAALGASVADVKVTSRLTDTPACVVTGEGEMSTQMIKLMQAAGQPVPEVKPTFEVNPAHPLVSRLNDLQDEAAFADWSNLLLQQAQLSEKGSLADPSAFIKLMNQMLLANLK
B2: Hsp90 from S. oneidensis (Hsp90So), purified, non-labeled (protein, UniProt Q8EFF7 1-637)
chain: MSQQETHGFQTEVKQLLHLMIHSLYSNKEIFLRELVSNAADAADKLRYLALTNDALYEGDGELRVRISADKEKGTVTIEDNGVGMTRDGVIEHLGTIAKSGTAEFFKNLSGEASKDSQLIGQFGVGFYSAFIVAKKVTVRTRAAGHKANEAVLWESEGEGSFTVETITKATRGTEITLHLRDDEKEFADDWRLRSIITKYSDHISIPVEMWQEGTPERDGPDGEKIPATEGYWKAMNKATALWMRNKSEITDEEYQEFYKHISHDYTDALLWSHNRVEGKQEYTNLLYIPSKAPWDLWNRDRKHGLKLFVQRVFIMDDAEQFMPSYLRFVQGLIDSNDLPLNVSREILQDNHITKAMRTGITKRVLGMLEKLAKDDAEKYQQFWAEFGQVLKEGPAEDFANRERIAGLLRFASTHTGSAAPTVSLDDYISRMKEGQTKIYYIVADSHEAAANSPHLELLRKKGIEVLLMSERIDEWLINHLTEYKEKQLHSVTRGELELGELEDAAEKEAQEKLAEESAPLIERIKAALGASVADVKVTSRLTDTPACVVTGEGEMSTQMIKLMQAAGQPVPEVKPTFEVNPAHPLVSRLNDLQDEAAFADWSNLLLQQAQLSEKGSLADPSAFIKLMNQMLLANLK

Legend:
[1] = target: T1, TilSSoL340P, fused to the T18 domain of B. pertussis adenylate cyclase (S. oneidensis) (UniProt Q8EGF9); test: two-hybrid
T1 sequence: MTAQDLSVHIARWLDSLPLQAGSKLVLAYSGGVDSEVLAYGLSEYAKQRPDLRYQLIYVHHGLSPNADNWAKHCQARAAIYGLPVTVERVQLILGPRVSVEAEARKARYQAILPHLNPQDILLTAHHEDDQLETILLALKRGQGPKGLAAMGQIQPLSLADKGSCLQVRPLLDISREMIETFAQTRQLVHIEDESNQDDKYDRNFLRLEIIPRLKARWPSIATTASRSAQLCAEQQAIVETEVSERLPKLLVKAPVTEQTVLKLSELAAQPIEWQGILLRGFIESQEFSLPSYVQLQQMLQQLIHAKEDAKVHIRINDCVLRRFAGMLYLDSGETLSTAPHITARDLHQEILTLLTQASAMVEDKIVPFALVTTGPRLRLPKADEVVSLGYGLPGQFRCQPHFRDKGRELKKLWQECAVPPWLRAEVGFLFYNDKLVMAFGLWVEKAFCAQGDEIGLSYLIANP

[2] = target: T2, TilS from E. coli (TilSEc), purified, with 6-His tag (E. coli) (UniProt P52097); test: MST
T2 sequence (chain, RED-tris-NTA 2nd generation dye (NanoTemper) on the 6-His tag): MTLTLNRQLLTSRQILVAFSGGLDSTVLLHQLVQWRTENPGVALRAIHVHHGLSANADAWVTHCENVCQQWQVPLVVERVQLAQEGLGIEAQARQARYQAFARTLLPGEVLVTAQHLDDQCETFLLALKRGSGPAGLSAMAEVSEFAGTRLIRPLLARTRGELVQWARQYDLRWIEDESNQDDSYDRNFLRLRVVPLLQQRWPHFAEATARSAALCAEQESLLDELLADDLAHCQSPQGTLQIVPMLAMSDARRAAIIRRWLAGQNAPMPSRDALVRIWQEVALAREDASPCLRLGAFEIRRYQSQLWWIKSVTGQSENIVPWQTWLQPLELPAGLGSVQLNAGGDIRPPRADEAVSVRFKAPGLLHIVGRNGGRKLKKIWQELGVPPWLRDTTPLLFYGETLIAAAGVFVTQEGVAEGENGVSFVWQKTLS

Row | Binder | binding [1] | binding [2]
1 | B1 | binds | 
2 | B2 |  | no binding (tested: Hsp90So up to 50 µM)

Reference: paper doi:10.1101/2025.07.01.662558 (bioRxiv, 2025)
